Values from PubChem BioAssay AID504774 (Drosophila RNAi Screening Center, 2011)
The screen tested about 23,000 reagents; this is an unselected part of those with a known target gene and a result. 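Values are quantile-normalised luminescence on an arbitrary scale; higher means more cells surviving MMS.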 Not all columns of the deposit are shown. No sequences are given here.

- Aim: 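Genes required for cells to withstand methyl methanesulphonate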 (primary screen)
- Cell system: Drosophila Kc167 cells
- Reagents: long dsRNA against Drosophila genes, about 0.25 µg dsRNA per well
- Duration: about 6 days: 3 days knock-down, then 3 days with or without MMS
- Conditions: methyl methanesulphonate 0.004% (w/v) for 3 days after knock-down
- Measured: 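ATP-dependent luminescence as a measure of live cells in MMS-exposed wells, quantile normalised within each plate, with replicate values also given as a mean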
- Reading the numbers: mean viability with MMS: higher = more surviving cells after MMS

Knock-down of CheB93a (GeneID 42540) [DRSC15044] resulted in: mean viability with MMS 3.64e6.
Silencing of CG30357 (GeneID 246563) [DRSC22472] resulted in: mean viability with MMS 3.61e6.
Silencing of Dsp1 (GeneID 117294) [DRSC20315] resulted in: mean viability with MMS 2.58e6.
Against Dsp1 (GeneID 117294) [DRSC23078], the entry reads mean viability with MMS 3.47e6.
Against Gpdh3 (GeneID 42624) [DRSC13561], the values are mean viability with MMS 3.59e6.
Knock-down of Gpdh3 (GeneID 42624) [DRSC15325] came out at: mean viability with MMS 3.49e6.
With knock-down of CG12105 (GeneID 38190) [DRSC08255] the results were mean viability with MMS 3.57e6.
CG3544 (GeneID 33252) [DRSC00613] gave mean viability with MMS 3.50e6.
For fs(1)Yb (GeneID 31262) [DRSC18777] the deposit lists mean viability with MMS 3.59e6.
Pi3K92E (GeneID 42446) [DRSC16788] showed mean viability with MMS 3.71e6.
C3G (GeneID 31618) [DRSC17745] scored mean viability with MMS 3.69e6.
C3G (GeneID 31618) [DRSC17929] gave mean viability with MMS 3.91e6.
Knock-down of C3G (GeneID 31618) [DRSC22329] resulted in: mean viability with MMS 3.60e6.
For C3G (GeneID 31618) [DRSC23077], the values are mean viability with MMS 3.53e6.
For Ubc2 (GeneID 34487) [DRSC01137], the entry reads mean viability with MMS 3.55e6.
Silencing of Ubc2 (GeneID 34487) [DRSC03468] gave: mean viability with MMS 3.58e6.
After knock-down of Mst57Db (GeneID 43122) [DRSC21551], the record shows mean viability with MMS 3.54e6.
With knock-down of CG15605 (GeneID 36933) [DRSC06558] the results were mean viability with MMS 3.66e6.
Knock-down of CG31051 (GeneID 261634) [DRSC15034] resulted in: mean viability with MMS 3.49e6.
Against Or85d (GeneID 41011) [DRSC16767] the deposit lists mean viability with MMS 3.54e6.
After knock-down of CR18275 (GeneID 8674032) [DRSC18151], the screen gave mean viability with MMS 3.60e6.
For CG3841 (GeneID 34278) [DRSC02730] the deposit lists mean viability with MMS 3.62e6.
etaTry (GeneID 36217) [DRSC07613] scored mean viability with MMS 3.53e6.
For Chchd3 (GeneID 43672) [DRSC16981], the values are mean viability with MMS 4.13e6.
CG8034 (GeneID 32924) [DRSC20076] scored mean viability with MMS 3.38e6.
With knock-down of Atg5 (GeneID 31666) [DRSC18112], the record shows mean viability with MMS 3.48e6.
After knock-down of CarT (GeneID 35334) [DRSC03196] the results were mean viability with MMS 3.33e6.
After knock-down of udt (GeneID 42809) [DRSC14214], the record shows mean viability with MMS 3.61e6.
For CG12783 (GeneID 42019) [DRSC14538] the deposit lists mean viability with MMS 3.42e6.
Silencing of CG33506 (GeneID 3346177) [DRSC05981] gave: mean viability with MMS 3.32e6.
After knock-down of xit (GeneID 31623) [DRSC18364], the screen gave mean viability with MMS 3.58e6.
Silencing of app (GeneID 39399) [DRSC09159] resulted in: mean viability with MMS 3.51e6.
For app (GeneID 39399) [DRSC10246], the entry reads mean viability with MMS 3.41e6.
app (GeneID 39399) [DRSC10526] gave mean viability with MMS 3.45e6.
After knock-down of CG13501 (GeneID 37510) [DRSC04146], the screen gave mean viability with MMS 3.47e6.

2 neighbouring entries already listed, for reference:
C3G (GeneID 31618) [DRSC22329] → mean viability with MMS = 3.60e6
C3G (GeneID 31618) [DRSC23077] → mean viability with MMS = 3.53e6
